Each number is a percent effect as filed. How 0% and 100% were set is not recorded. Most values in the screen are low, and negative values occur. Compounds were drawn at random from those tested, without regard to their results. A dash means the value is not listed here; it may have been measured.

Protein sequences, listed by entry. Tags and fused reporters are not part of them. Residues count along the entry.
UniProt Q8IDJ8, 1-583: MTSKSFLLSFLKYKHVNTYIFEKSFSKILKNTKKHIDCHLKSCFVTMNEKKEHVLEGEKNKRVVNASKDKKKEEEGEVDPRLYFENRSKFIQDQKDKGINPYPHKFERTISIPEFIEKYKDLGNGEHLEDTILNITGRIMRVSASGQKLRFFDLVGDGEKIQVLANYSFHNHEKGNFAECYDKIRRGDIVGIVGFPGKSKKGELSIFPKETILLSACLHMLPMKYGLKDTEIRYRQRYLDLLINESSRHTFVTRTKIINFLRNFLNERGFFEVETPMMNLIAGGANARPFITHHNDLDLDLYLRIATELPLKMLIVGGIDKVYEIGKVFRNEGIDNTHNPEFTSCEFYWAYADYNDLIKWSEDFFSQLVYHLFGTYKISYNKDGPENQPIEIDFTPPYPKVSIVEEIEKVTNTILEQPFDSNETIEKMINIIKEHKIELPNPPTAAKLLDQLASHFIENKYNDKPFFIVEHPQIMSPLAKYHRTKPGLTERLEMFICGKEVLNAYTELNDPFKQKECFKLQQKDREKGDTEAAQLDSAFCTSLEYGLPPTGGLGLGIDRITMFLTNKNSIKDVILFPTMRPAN
UniProt A4I591, 1-473: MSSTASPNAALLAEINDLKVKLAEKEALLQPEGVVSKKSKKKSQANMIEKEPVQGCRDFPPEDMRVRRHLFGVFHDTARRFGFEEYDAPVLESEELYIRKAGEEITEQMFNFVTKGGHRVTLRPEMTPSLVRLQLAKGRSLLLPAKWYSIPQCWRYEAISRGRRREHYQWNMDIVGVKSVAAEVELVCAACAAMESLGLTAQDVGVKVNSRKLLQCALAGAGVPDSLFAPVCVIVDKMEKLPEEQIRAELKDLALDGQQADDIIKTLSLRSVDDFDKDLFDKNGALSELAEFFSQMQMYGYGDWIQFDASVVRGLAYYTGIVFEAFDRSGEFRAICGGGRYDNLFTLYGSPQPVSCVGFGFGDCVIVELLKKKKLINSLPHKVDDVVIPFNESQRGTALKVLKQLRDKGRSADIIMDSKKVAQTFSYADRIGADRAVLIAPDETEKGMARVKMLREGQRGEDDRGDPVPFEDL
UniProt Q4DA54, 1-478: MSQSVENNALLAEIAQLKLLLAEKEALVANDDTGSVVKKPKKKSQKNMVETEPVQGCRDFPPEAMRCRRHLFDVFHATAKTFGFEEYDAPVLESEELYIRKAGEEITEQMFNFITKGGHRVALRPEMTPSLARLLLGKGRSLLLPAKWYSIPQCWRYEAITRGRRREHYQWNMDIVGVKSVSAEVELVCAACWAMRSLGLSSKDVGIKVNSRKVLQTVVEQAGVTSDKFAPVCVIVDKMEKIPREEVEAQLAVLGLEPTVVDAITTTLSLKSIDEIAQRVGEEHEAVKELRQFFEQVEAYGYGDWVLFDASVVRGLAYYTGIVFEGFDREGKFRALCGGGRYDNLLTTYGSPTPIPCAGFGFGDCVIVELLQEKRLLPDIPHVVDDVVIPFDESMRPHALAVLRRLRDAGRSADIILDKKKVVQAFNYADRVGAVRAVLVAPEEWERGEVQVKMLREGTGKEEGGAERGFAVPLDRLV
UniProt P9WPC5, whole entry: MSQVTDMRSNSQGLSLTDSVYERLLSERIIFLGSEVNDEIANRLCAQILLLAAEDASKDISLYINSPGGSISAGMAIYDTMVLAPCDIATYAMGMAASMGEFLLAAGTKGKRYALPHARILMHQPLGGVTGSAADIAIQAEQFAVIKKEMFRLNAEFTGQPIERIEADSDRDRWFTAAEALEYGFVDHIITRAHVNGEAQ
UniProt P9WPC3, whole entry partner: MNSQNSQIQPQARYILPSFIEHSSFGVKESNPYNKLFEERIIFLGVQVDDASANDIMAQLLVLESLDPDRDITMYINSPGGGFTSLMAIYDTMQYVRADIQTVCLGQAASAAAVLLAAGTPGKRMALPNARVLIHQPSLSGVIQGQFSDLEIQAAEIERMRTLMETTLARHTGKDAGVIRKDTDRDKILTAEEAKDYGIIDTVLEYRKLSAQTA

PfKRS1: 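Lysine-tRNA ligase, Plasmodium falciparum 3D7 (UniProt Q8IDJ8). Enzyme assay of the cytosolic lysyl-tRNA synthetase in 384-well plates, read by luminescence. Compounds at 30 µM. Direction is inferred from only a few compounds that gave an IC50; most scored high, so higher reads as stronger inhibition. Of about 69,000 compounds tested this way, about 49 (0.071%) reached 50% or more in at least one test.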
LiHisRS: 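Enzyme assay of histidyl-tRNA synthetase; the read-out is not stated. Target: Histidine-tRNA ligase, Leishmania infantum (UniProt A4I591). Tested at 30 µM. Higher reads as stronger inhibition (inferred: compounds with an IC50 in retests scored well above the rest). The assay is labelled LdHisRS but filed under L. infantum. Size under these conditions: about 69,000 compounds, about 410 of them at 50% or above in at least one test.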
TcHisRS: 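Histidine-tRNA ligase, Trypanosoma cruzi CL Brener (UniProt Q4DA54). Enzyme assay of histidyl-tRNA synthetase; the read-out is not stated. Concentration: 30 µM. Direction is inferred from retests: higher values go with stronger inhibition. Of about 69,000 compounds tested this way, about 31 (0.045%) reached 50% or more in at least one test.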
Leishmania in macrophages: 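Cell assay of Leishmania donovani living inside macrophages; the read-out is not stated. Tested at 30 µM. The record gives no direction; compounds that gave an IC50 in retests scored well above the rest, so higher reads as stronger inhibition. Of about 69,000 compounds tested this way, about 1,000 (1.5%) reached 50% or more in at least one test.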
ClpP1P2: 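Protease assay of ClpP1P2, read by the AMC dye that it sets free. Target: ClpP1P2, Mycobacterium tuberculosis (UniProt P9WPC5 and UniProt P9WPC3). Concentration: 50 µM. Direction is inferred from only a few compounds that gave an IC50; most scored high, so higher reads as stronger inhibition. Most other retested compounds had strongly negative values. Size under these conditions: about 69,000 compounds, about 10 of them at 50% or above in at least one test.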

Compound	PfKRS1	LiHisRS	TcHisRS	Leishmania in macrophages	ClpP1P2
[H][C@@]12CCN(CC3CCOCC3)C[C@@]1([H])O[C@@H](C)C2	-	-	-	12.13	-
Cn1ccnc1CCNC(=O)C1CCCN(Cc2cccc(F)c2)C1 (stereo not given)	8.539	15.18	12.07	0.9932	-3.764
Cc1[nH]c2c(F)cccc2c1CC(=O)N1CCN(C2CCSCC2)CC1	4.769	12.5	-9.662	0.4303	-30.02
O=C(NCc1ccccc1F)C1=NOC2(CCNC2)C1 (stereo not given)	5.656	12.73	5.785	-	-0.1594
[H][C@]12CCCCN1CCC[C@H]2CN(C)Cc1ccccc1-n1cccn1	-	-	-	42.15	-
Cc1nc(C(C)Nc2nc3c(s2)c(C)nn3C)n[nH]1 (stereo not given)	1.001	16.78	2.488	-13.84	25.29
NC(=O)c1csc(N2C[C@@H](CN3CCOCC3)[C@@H](CO)C2)n1	2.995	10.59	6.03	-3.443	-15.5
Cc1noc(C2(C)CCCN(C(=O)C(C)C)C2)n1 (stereo not given)	3.865	12.68	9.231	33.64	-3.956
O=C(O)C(F)(F)F.O=C(O)C(F)(F)F.c1cnc(N2CCCC3(CCN(c4ncccn4)C3)C2)nc1 (stereo not given)	-	-	-	12.64	-
COc1ccc(C(=O)N2CCC(Nc3cccnn3)CC2)c(F)c1	0.6122	13.04	6.197	-7.128	-3.039
O=C(Cc1nc(-c2ccncc2)n[nH]1)N1CCOCC1	-0.09984	1.205	6.468	-34.22	-7.528
N#Cc1ccc(C(=O)N2CC[C@H]3[C@@H]2CCC(=O)N3c2ccccc2)cc1	4.278	-0.7299	8.197	-	2.166
Cc1[nH]/c(=N\C(=O)c2csc(NCC(C)C)n2)sc1C	3.811	20.95	5.785	87.72	7.877
Cc1cc(NC2CCc3ncnn3C2)n2ncnc2n1 (stereo not given)	0.9029	7.407	5.521	-50.61	-10.2
Cc1cnc(-n2cnnc2)c(-c2cccc3c2CCNC3)c1	5.17	10.67	2.717	4.04	2.8
CCc1nc(C(=O)N2CCOCC2CC(=O)c2ccccc2)c[nH]1 (stereo not given)	1.077	4.839	1.031	7.661	-6.404
c1cc(C2CCCN2Cc2nnnn2C2CC2)cs1 (stereo not given)	8.431	25.96	5.691	27.28	3.426
CCO[C@H]1CO[C@@]2(CCN(Cc3ccc4c(c3)OCO4)C2)C1.O=C(O)C(F)(F)F	-	-	-	9.141	-
CC(C)c1nnc2n1CC(CNCc1ccsc1)CC2 (stereo not given)	2.562	12.39	-0.8772	-3.014	-3.174
O=S1(=O)C[C@@H]2[C@H](C1)N(Cc1cc(Cl)cc(Cl)c1)CCN2CCO	4.837	5.714	7.216	-	-8.912
COCCN1CCC2(CC1)CC1(CCN(S(C)(=O)=O)CC1)N(C)C2=O	10.05	19.33	5.882	-	-12.48
c1ccc(OCc2noc(CN3CCN(C4CCCC4)CC3)n2)cc1	-2.783	-8.219	3.784	-4.165	-4.933
COCCNC(=O)C1CN(C(N)=O)Cc2ccnn2C1 (stereo not given)	-1.793	-8.333	3.81	-16.15	-19.75
Cc1nc[nH]c1CN1CCC(C2CCN(CCc3ccccc3)C2)CC1 (stereo not given)	6.49	35.29	3.704	22.99	-5.873
Cn1cc(Br)c(=O)c(NS(=O)(=O)c2ccc(Cl)cc2)c1	1.481	2.041	4.103	9.418	-2.495
CCOC(=O)c1nc(CC(=O)Nc2ccccc2)no1	4.335	7.865	1.554	-20.84	0.9585
O=C(C1CN(c2ncc(F)cn2)CC12CCOCC2)N1CC=CC1 (stereo not given)	-2.014	17.95	3.743	-	0.3862
Cn1cc(-c2nc(C3CCN(CC4CC4)CC3)cc3c2ncn3C)cn1	-2.419	6.838	3.681	5.789	-10.3
CC(C)c1cc(NCc2csc(C(C)C)n2)nc(N)n1	1.247	11.76	8.642	50.61	12.46
CN1C(=O)C2(CCN(Cc3nccn3C)CC2)c2ccccc21.O=C(O)C(F)(F)F	-	-	-	-2.011	-
Cc1nnc(CN2CCN(Cc3nccn3C)CC2)n1C	2.142	15.07	4.926	25.22	-12.94
CCc1[nH]c2c(CNc3cncc(C(=O)N(C)C)n3)cc(C)cc2c1C	0.6579	27.12	9.268	1.669	-17.13
[H][C@@]12CCN(C(=O)CC(C)(C)C)[C@]1([H])C(=O)N(Cc1ccccc1)C(=O)N2	-	-	-	-1.605	-
COCCOc1ccc(NC(=O)N(C)Cc2ccsc2)cn1	8.331	12.36	5.263	-4.838	-0.07469
CC(C)C(=O)N1CCC2(CC1)NC(=O)c1ccccc12.Cl	-	-	-	13.1	-
CN(CCc1ccccc1)C(=O)c1cc(CN2CCC(O)CC2)on1	-0.3132	2.151	1.571	23.05	-7.461
CN1CC2(CCN(C(=O)c3ccc4nccnc4c3)CC2)CC1=O	6.651	8.333	3.352	7.468	-4.3
Cc1ccc(NC(=O)CC2Cn3ncnc3NC2=O)cc1C (stereo not given)	4.832	9.655	1.775	22.77	-3.635
N#Cc1ccc(CN(CCF)Cc2cccc(F)c2)cc1	0.7604	9.326	-3.867	-35.03	6.975
O=C(C1CC12CCC2)N1CCC(n2cc(-c3ccsc3)nn2)CC1 (stereo not given)	0.2695	17.74	2.299	23.59	-8.938
Cl.NC(=O)c1ccc(CNC2CC2)cc1	-	-	-	1.287	-
Cc1cccc(CN2C[C@@H]3CN(C(=O)c4conc4C)C[C@@H]3C2=O)c1	-0.878	-114.3	4.902	-	-16.89
CCCNC(=O)N1CCC(c2nnc(Cn3cccn3)n2C2CC2)CC1	8.821	13.58	0.4464	-13.39	-17.13
CN(C)C(=O)N1CCN(Cc2cnc(-c3ccsc3)s2)CC1	5.322	7.463	3.191	18.63	-2.526
CSCC(CCO)NC(=O)c1cccc(Cl)c1F (stereo not given)	-1.912	5	0	-31.77	-16.67
CN1CCC(N(C)C[C@H]2CC[C@@H](Cc3cccc(CO)c3)O2)CC1	-0.2555	19.4	-4.255	11.6	-0.5194
O=C(O)C(F)(F)F.O=C(O)C(F)(F)F.c1ccc(CN2CCC3(CC2)CN(c2ccccn2)CCO3)nc1	-	-	-	6.071	-
COCCC1COC2(CCN(C(=O)c3ccncc3)CC2)C1.O=C(O)C(F)(F)F (stereo not given)	-	-	-	17.52	-
Cc1nccn1CCC(=O)N1CCCN(CCCc2ccccc2)CC1	-0.2182	16	8.434	32.26	-10.6
O=C(c1ccnc(C2CCNCC2)c1)N1CCCOCC1	-1.047	9.396	5.429	-	-40.44
CCN1CCC(NC(=O)CN2CCCC2Cn2cc(C)cn2)CC1 (stereo not given)	0.8409	7.826	3.38	16.9	-10.53
CCn1ccc(-c2cc(NCCCOc3ccccc3C)nc(C)n2)n1	1.373	11.35	19.92	56.31	-1.705
Cc1ccc2nc(NCCN3CCOCC3)n(C)c(=O)c2c1	5.499	22.86	4.082	28.2	2.592
O=C(O)C(F)(F)F.O=C(O)C(F)(F)F.[H][C@@]12OCCN(C3CCCC3)[C@@]1([H])CC[C@H]2Oc1cccnc1	-	-	-	30.9	-
CC(C)N(CC(=O)O)Cc1cccc(Br)c1	6.562	6.494	8.374	-	-14.22
O=C(NCC(O)c1ccc(F)cc1F)c1cccnc1O (stereo not given)	0.2777	14.4	-3.922	4.967	-13.48
CC(C)NC(=O)N1CCc2onc(C(=O)Nc3cccnc3)c2C1.O=C(O)C(F)(F)F	-	-	-	2.903	-
CC(=O)N1CC[C@@H]2O[C@@H](COCc3csc(C)n3)CC[C@@H]21	-4.365	8.824	4.926	-	18.6
CCCc1nccn1-c1cccc(CN2CCCC2)c1	9.664	0	9.948	9.929	-7.06
CCn1nnc2c1C(COC)CN(Cc1cccs1)C2 (stereo not given)	6.37	13.46	0.5348	-	-2.746

The first 5 entries again:

Compound,PfKRS1,LiHisRS,TcHisRS,Leishmania in macrophages,ClpP1P2
[H][C@@]12CCN(CC3CCOCC3)C[C@@]1([H])O[C@@H](C)C2,-,-,-,12.13,-
Cn1ccnc1CCNC(=O)C1CCCN(Cc2cccc(F)c2)C1 (stereo not given),8.539,15.18,12.07,0.9932,-3.764
Cc1[nH]c2c(F)cccc2c1CC(=O)N1CCN(C2CCSCC2)CC1,4.769,12.5,-9.662,0.4303,-30.02
O=C(NCc1ccccc1F)C1=NOC2(CCNC2)C1 (stereo not given),5.656,12.73,5.785,-,-0.1594
[H][C@]12CCCCN1CCC[C@H]2CN(C)Cc1ccccc1-n1cccn1,-,-,-,42.15,-

The values are deposited in ChEMBL (CHEMBL3988442, “University of Dundee, Small-Polar-MMV Screening Library” (2021)).